Consider 54 molecules from PubChem BioAssay AID1487 (National Center for Advancing Translational Sciences (NCATS), 2009).

“And” between values parts separate entries of the source, which are not always exact repeats. Equal entries are not always repeated. The list shows a part of the results. These are further read-outs of the screen, such as a control signal, another cell line or another target. No call is given for them. The list favours compounds with an active or inconclusive main result. Words in brackets tell the shape of the fitted curve; partial curves, single points and poor fits give uncertain potencies.

A short description of this experiment: qHTS Assay for Modulators of Lamin A Splicing. Conditions: HeLa LMNA splicing GFP/RFP minigene ratio, 48 h. In a few lines: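 S3 HeLa cells stably expressing lamin A-EGFP splicing minigene plus DsRed2, 600 cells/well, 48 h compound exposure at 37C. Laser-scanning cytometry; analysed as GFP (500-530 nm)/RFP (575-640 nm) total intensity ratio; 0.5% DMSO vehicle.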

[1] abbreviates: measured here: RFP viability control channel.
Setting [2] is: measured here: GFP splicing reporter channel.

What is called AC50 is the concentration at which the activity in the assay is half-maximal.

Turning to `COc1cc(CNC(=O)CCCC/C=C/C(C)C)ccc1O`, under setting [1], the AC50 is 35.5 µM [falling, single point].

On to `C[C@@H](C(=O)O)c1ccc(C(=O)c2cccs2)cc1`, for which the half-maximal activity concentration (AC50) by setting is: under setting [2], 0.00794 µM [falling, full curve, poor fit]; under setting [1], 0.355 µM [falling, single point]. For `CN1C[C@H](C(=O)N[C@]2(C)O[C@@]3(O)[C@@H]4CCCN4C(=O)[C@H](Cc4ccccc4)N3C2=O)C=C2c3cccc4[nH]cc(c34)C[C@H]21`, the AC50 under setting [1] was 11.2 µM [rising, partial curve, poor fit]. Same read-out and setting: the value for `NNCc1cccc(O)c1` was 15.8 µM [falling, partial curve, poor fit]. On the same count and under the same terms, the value for `CCOc1ccccc1-n1c(O)c(C=Nc2ccc(N(CC)CC)cc2)c(=O)[nH]c1=O` was 35.5 µM [rising, single point]; that for `COc1cc(/C=N/Nc2ccc(S(N)(=O)=O)cc2)cc(OC)c1OC` was 6.31 µM [rising, full curve]; that for `CCOC(=O)c1cccc(NC(=O)c2cnc(N3CCCCC3)c3ccccc23)c1` was 7.08 µM [falling, partial curve, poor fit]. The same measure, in the same setting: the value for `CCCN(CCC)[C@@H]1CCc2c(F)ccc(O)c2C1` was 2.82 µM [rising, single point]. As for `COc1cc2c(c(OC)c1OC)-c1ccc(OC)c(=O)cc1[C@H](NC(C)=O)CC2`, the AC50 under setting [2] was 0.0501 µM [falling, full curve] and the AC50 under setting [1] was 0.0794 µM [falling, full curve]. `CCC(=Nc1ccc(OC)cc1OC)c1c(O)n(C2CCCCC2)c(=O)[nH]c1=O`: the AC50 by setting is: under setting [2], 12.6 µM [rising, partial curve]; under setting [1], 15.8 µM [rising, single point].

On to `CNc1cc(Cl)c2nonc2c1[N+](=O)[O-]`, for which, under setting [1], the AC50 was 10 µM [falling, partial curve, poor fit].

Turning to `Cc1cc(/C=C2\C(=O)NC(=O)N(Cc3ccccc3Cl)C2=O)c(C)n1-c1ccc(C(=O)O)cc1`, the AC50 under setting [1] is 0.00316 µM [falling, full curve, poor fit].

In the case of `Cc1ccc(N=C2N=C(N)c3ccccc32)c(C)c1`, the AC50 under setting [1] is 35.5 µM [rising, single point]. On the same count and under the same terms, to `CC1CN(c2ccc([N+](=O)[O-])cc2Cl)CCN1` (centres undefined) belongs 0.02 µM [falling, full curve, poor fit]. For the molecule `CCCN(CCC)C(=O)Cc1c(-c2ccc(Cl)cc2)nc2c(Cl)cc(Cl)cn12`, the concentration at half-maximal activity (AC50) is 5.62 µM [falling, partial curve, poor fit] under setting [2] and 6.31 µM [falling, single point] under setting [1].

`O=C(CSc1nnnn1-c1ccccc1)Nc1ccc(N2CCOCC2)c(Cl)c1`: the AC50 was 11.2 µM [rising, partial curve] under setting [2] and 14.1 µM [rising, partial curve] under setting [1]. Turning to `O=C(OCCCCN1C(=O)c2ccccc2C1=O)c1ccc(Br)o1`, under setting [1], the concentration at half-maximal activity (AC50) was 5.62 µM [rising, single point]. Still for that read-out and setting: the value for `Cc1nn(Cc2ccccc2Cl)c(C)c1C(=O)NC1CCCc2ccccc21` (centres undefined) was 11.2 µM [rising, single point]; that for `Cc1nc(N2CCN(Cc3ccccc3)CC2)nc2c1C(=O)CC(C)C2` (centres undefined) was 20 µM [rising, single point]. Regarding `CCCCCCCC(=O)OCC(COC(=O)CCCCCCC)OC(=O)CCCCCCC`, the AC50 is 0.0224 µM [rising, full curve, poor fit] under setting [2] and 0.0178 µM [rising, full curve, poor fit] under setting [1]. As for `C=CCOc1c(Cl)cc(CNc2ccc3[nH]c(=O)[nH]c3c2)cc1OC`, the AC50 was 17.8 µM [rising, partial curve, poor fit] under setting [2] and 11.2 µM [rising, partial curve] under setting [1].

For `O=C(CC[N+](=O)[O-])OCC1OC(O)C(OC(=O)CC[N+](=O)[O-])[C@@H](OC(=O)CC[N+](=O)[O-])C1OC(=O)CC[N+](=O)[O-]` (some centres undefined), under setting [2], the AC50 is 11.2 µM [rising, partial curve].

For `COc1ccccc1-n1c(/C=C/c2ccccc2)nc2ccccc2c1=O`, the AC50 under setting [2] is 22.4 µM [falling, partial curve, poor fit]. With `CC1CCCN(C(=O)CCl)C1` (centres undefined), the AC50 under setting [1] is 0.316 µM [rising, partial curve, poor fit]. Still for that read-out and setting: to `CN(C)C(=O)Oc1ccnc2cc(Cl)ccc12` belongs 35.5 µM [rising, single point]. Turning to `CC[n+]1c(/C=C/N(C)c2ccccc2)sc2ccc(Cl)cc21`, the concentration at half-maximal activity (AC50) under setting [2] was 3.98 µM [rising, single point]. Consider `COc1ccc(C)cc1NC(=O)CN1CCN(CC(=O)Nc2ccccc2F)CC1`, for which the AC50 under setting [1] is 20 µM [rising, single point]. In the case of `CCN(CC)c1ccc(C=C2C(=O)NC(=S)NC2=O)cc1`, the AC50 under setting [2] is 20 µM [falling, single point] and the AC50 under setting [1] was 31.6 µM [falling, partial curve].

With `CCc1ccc(OCC(=O)N2CCN(CCc3ccccn3)CC2)cc1`, the concentration at half-maximal activity (AC50) under setting [2] was 0.794 µM [falling, single point]. As to `NC(CP(=O)(O)O)C(=O)O` (centres undefined), the half-maximal activity concentration (AC50) runs as follows: under setting [2], 39.8 µM [falling, partial curve, poor fit]; under setting [1], 0.00631 µM [falling, full curve, poor fit].

As to `CN1CCc2cc(O)cc3c2C1Cc1ccc(O)c(O)c1-3` (centres undefined), the half-maximal activity concentration (AC50) reads like this: under setting [2], 17.8 µM [falling, partial curve]; under setting [1], 11.2 µM [falling, partial curve]. With `CN1CCN(C(=O)O[C@H]2c3nccnc3C(=O)N2c2ccc(Cl)cn2)CC1`, the AC50 under setting [2] is 35.5 µM [falling, single point].

Turning to `Cc1cccc(-n2c(-c3cccs3)nc3ccccc3c2=O)c1`, the half-maximal activity concentration (AC50) under setting [1] was 35.5 µM [rising, single point]. On the same count and under the same terms, to `CC(=O)N1CCN(c2ccc([N+](=O)[O-])cc2C=C2C(=O)NC(=O)NC2=O)CC1` belongs 14.1 µM [rising, single point]; to `COc1cc2c(cc1O)CC[n+]1cc3c(OC)c(OC)ccc3cc1-2`, 11.2 µM [rising, partial curve, poor fit].

As to `O=C1Nc2ccc(Cl)cc2C(c2ccccc2Cl)=NC1O` (centres undefined), the half-maximal activity concentration (AC50) under setting [2] is 12.6 µM [rising, partial curve, poor fit] and the AC50 under setting [1] is 28.2 µM [rising, single point]. With `CCC(=Nc1ccc2c(c1)CCC2)c1c(O)n(C)c(=O)n(C)c1=O`, the concentration at half-maximal activity (AC50) under setting [1] was 3.98 µM [rising, partial curve]. For `CCC(=O)c1ccc(OC(=O)N(C)c2ccccc2)cc1`, the AC50 under setting [2] was 0.0224 µM [rising, full curve, poor fit]. In the case of `CCC(=NCc1cc(OC)cc(OC)c1)c1c(O)n(C)c(=O)n(C)c1=O`, the AC50 under setting [1] was 2.51 µM [rising, full curve, poor fit]. For the molecule `COc1ccc2c(c1O)-c1c(OC)c(OC)cc3c1[C@H](C2)N(C)CC3`, the AC50 under setting [2] was 0.251 µM [falling, full curve, poor fit]. As for `NCC(CC(=O)O)c1ccc(Cl)cc1` (centres undefined), the concentration at half-maximal activity (AC50) is, setting by setting: under setting [2], 0.501 µM [rising, full curve, poor fit]; under setting [1], 6.31 µM [falling, partial curve, poor fit]. Regarding `O=C1OC(c2ccc(O)c(S(=O)(=O)O)c2)(c2ccc(O)c(S(=O)(=O)O)c2)c2c(Br)c(Br)c(Br)c(Br)c21`, the AC50 under setting [2] is 10 µM [falling, partial curve, poor fit]. Consider `CN(c1ccccc1)S(=O)(=O)c1cccc(C(=O)N2CCN(c3ccccn3)CC2)c1`, for which the half-maximal activity concentration (AC50) runs as follows: under setting [2], 14.1 µM [rising, single point]; under setting [1], 22.4 µM [rising, single point]. As for `Clc1ccc2c(c1)CCc1cccnc1C2=C1CCNCC1`, the half-maximal activity concentration (AC50) by setting is: under setting [2], 7.08 µM [falling, partial curve] and 11.2 µM [falling, single point]; under setting [1], 3.16 µM [falling, full curve] and 11.2 µM [falling, partial curve, poor fit]. With `CC(C)[C@]12O[C@H]1[C@@H]1O[C@]13[C@]1(O[C@H]1C[C@H]1C4=C(CC[C@@]13C)C(=O)OC4)[C@@H]2O`, the half-maximal activity concentration (AC50) was 0.00631 µM [falling, full curve, poor fit] under setting [2] and 0.0891 µM [falling, full curve] under setting [1]. For `O=c1cccc2n1CC1CNC[C@H]2C1`, the AC50 reads like this: under setting [2], 1 µM [falling, partial curve, poor fit]; under setting [1], 0.0631 µM [falling, single point]. Consider `Cc1cc(N2C(=O)C3CCCN3C2c2sccc2C)no1` (centres undefined), for which the concentration at half-maximal activity (AC50) under setting [2] is 2.51 µM [falling, full curve, poor fit] and the half-maximal activity concentration (AC50) under setting [1] is 2.24 µM [falling, full curve, poor fit]. With `CCOc1ccc(Br)c(C2(O)CC(C)N(C)CC2C)c1` (centres undefined), the AC50 under setting [2] is 35.5 µM [rising, single point].

`O=C(Nc1ccc2c(c1)OCO2)c1cccn(Cc2ccc(F)cc2)c1=O`: the AC50 was 0.178 µM [falling, full curve, poor fit] under setting [2] and 0.001 µM [falling, full curve, poor fit] under setting [1]. For the molecule `CCC(CC)C1C(C#N)=C(N)Oc2c1c(=O)oc1ccccc21` (centres undefined), the AC50 under setting [1] was 11.2 µM [rising, partial curve, poor fit]. The same measure, in the same setting: the value for `Cc1cccc(NC(=O)c2cccc(NS(=O)(=O)c3ccc(Cl)cc3)c2)c1` was 17.8 µM [rising, single point]. `C[Se]C[C@H](N)C(=O)O`: the AC50 was 10 µM [falling, partial curve, poor fit] under setting [2] and 5.01 µM [rising, partial curve] under setting [1]. On to `CC(N)Cc1ccc(O)cc1` (centres undefined), for which the AC50 under setting [2] is 35.5 µM [falling, single point]. For the molecule `CN1C(=O)CN=C(c2ccc(Cl)cc2)c2cc(Cl)ccc21`, the AC50 under setting [2] was 8.91 µM [rising, partial curve, poor fit] and the AC50 under setting [1] is 7.94 µM [rising, partial curve, poor fit].
